The campaign covered roughly 1,200 compounds. About 20 (2%) were called active. Another 23% or so got no clear call; they are omitted. Calls follow the shape of the dose curve; as a rule, active = well fitted inhibition curve with a large enough effect; inconclusive = small, poorly fitted or top-dose-only effect; inactive = no such curve, though single readings can be large or run the other way. This is one part of the list.
Target: Transcriptional regulator ERG (Homo sapiens) (UniProt P11308)
Assay: qHTS for Small Molecule Inhibitors of the ERG Ets/DNA interaction: HTRF assay against cherry picks
Settings: His-ERG Ets domain with biotin-DNA; at 154 µM (top of the series)
Text: The Ets family of proteins is a family of ~30 conserved transcription factors defined by the presence of an ~85 amino acid domain referred to as the Ets domain, which mediates sequence-specific DNA binding to a core DNA element GGAA/T.The Ets family member ERG has been linked to several neoplasms. […] More extensive studies of the effects of over-expression of ERG in prostate cells have recently been carried out and have shown that over-expression of ERG results in increased invasion. […] We will carry out a high throughout screen to identify inhibitors of the interaction between ERG and DNA using a fluorescence polarization (FP) assay with a His-tagged ERG Ets domain and fluorescently-labeled DNA probes to develop small molecule inhibitors of this interaction as probes to test this hypothesis and lay the groundwork for the development of targeted therapies against ERG. This is the counterscreen against the cherry picks. NIH Molecular Libraries Probe Production Network [MLPCN] NIH Chemical Genomics Center [NCGC] Grant: NS066464 PI Name: John Bushweller, University of Virgina
2 ul of protein solution (200 nM ERG domain in 300mM KCl, 50mM Tris-HCl, 1mM EDTA, 1mM DTT, pH 7.5); 20 nl Control plate and compound library plate; 2 ul of 200 nM biotin-DNA; incubate for 10 min at RT; 1 ul of anti-His antibody conjugated to the long-life fluorescent cryptate donner […] (5ng/ul) and streptavidin conjugated to the acceptor compound […] (0.2 ng/ul) mix; incubate 10 min and measure FRET (Excitation = 320 nm, Emission = 615, 665 nm).

Sequences of proteins named here, by UniProt entry; tags and fusion partners are left off. A change or cut given only in a name is not applied to a line headed by its entry.
UniProt P11308: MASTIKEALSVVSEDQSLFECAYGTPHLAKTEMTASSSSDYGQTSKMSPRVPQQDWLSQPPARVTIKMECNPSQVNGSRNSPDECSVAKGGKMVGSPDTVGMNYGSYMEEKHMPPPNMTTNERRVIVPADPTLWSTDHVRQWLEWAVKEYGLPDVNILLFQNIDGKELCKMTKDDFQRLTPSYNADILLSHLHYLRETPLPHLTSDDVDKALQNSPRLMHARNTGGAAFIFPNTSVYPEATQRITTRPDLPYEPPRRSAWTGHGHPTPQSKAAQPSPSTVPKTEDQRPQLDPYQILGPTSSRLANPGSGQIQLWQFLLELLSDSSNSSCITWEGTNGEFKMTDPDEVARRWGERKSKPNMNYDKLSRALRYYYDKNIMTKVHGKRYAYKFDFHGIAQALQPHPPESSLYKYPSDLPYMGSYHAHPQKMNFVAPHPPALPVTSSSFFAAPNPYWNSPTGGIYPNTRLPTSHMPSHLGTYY

Question: With `CN1[C@@H]2CCC[C@H]1CC(=O)C2` as the compound, how does the activity change, negative = inhibition read?
Answer: inactive: -23.7%

Question: Which activity change, negative = inhibition does the source give for `COc1cc(C[C@@H](C)N)c(OC)cc1I` here?
Answer: inactive: -31.3%

Question: `C[C@]12CCC(=O)C[C@@H]1CC[C@@H]1[C@@H]2CC[C@]2(C)[C@@H](O)CC[C@@H]12` was tested. Which activity change, negative = inhibition did it give?
Answer: inactive: -19.5%

Question: For `COC(=O)NC(=C(Cl)Cl)P(=O)(c1ccccc1)c1ccccc1`, which activity change, negative = inhibition is on record?
Answer: inactive: -23.8%

Question: How did the activity change, negative = inhibition turn out when `O=C(Cc1ccccc1)Oc1ccc([N+](=O)[O-])cc1` was run?
Answer: inactive: -15.5%

Question: Which activity change, negative = inhibition does the source give for `O=C(COc1ccccc1)NCCc1cnc[nH]1` here?
Answer: inactive: -29%

Question: `C[N+]1(C)[C@@H]2CC[C@H]1CC(OC(=O)C(CO)c1ccccc1)C2` (some centres undefined) was tested. Which activity change, negative = inhibition did it give?
Answer: inactive: -26.6%

Question: With `CC(=O)C1(c2ccccc2)CCN(C(=O)C2CCC(=O)N(CCc3cccc(F)c3)C2)CC1` (centres undefined) as the compound, how does the activity change, negative = inhibition read?
Answer: inactive: -19.4%

Question: For `CC(=O)N1CC(=O)Nc2ccc(F)cc2C1c1ccccc1` (centres undefined), which activity change, negative = inhibition is on record?
Answer: inactive: 4.99%

Question: For `C[C@]12CCC(=O)C=C1CC[C@@H]1[C@@H]2CC[C@@]2(C)[C@H]1CC[C@]2(C)O`, which activity change, negative = inhibition is on record?
Answer: inactive: -25.7%

Question: For `COc1ccc(C(c2ccc(OC)cc2)C(Cl)(Cl)Cl)cc1`, which activity change, negative = inhibition is on record?
Answer: inactive: -6.95%

Question: `COc1ccc2[nH]c(C)c(CCNCc3cccnc3)c2c1` was tested. Which activity change, negative = inhibition did it give?
Answer: inactive: -9.44%

Question: Which activity change, negative = inhibition does the source give for `O=c1c2ccccc2nc(-c2ccco2)n1-c1ccccc1` here?
Answer: inactive: -33.5%

Question: `O=C(CCc1nnc2ccc(NCc3ccccc3Cl)nn12)N1CCC2(CC1)OCCO2` was tested. Which activity change, negative = inhibition did it give?
Answer: inactive: -24.1%

Question: For `COc1cccc(-n2c(/C=C/c3cccc(C)c3)nc3ccccc3c2=O)c1`, which activity change, negative = inhibition is on record?
Answer: inactive: -27.6%

Question: With `N#CCN1CCN(c2ccc(C(F)(F)F)cc2)CC1` as the compound, how does the activity change, negative = inhibition read?
Answer: inactive: -12.9%

Question: `Cc1ccc(-c2nc3ccccc3c(=O)n2-c2cccc(O)c2)cc1` was tested. Which activity change, negative = inhibition did it give?
Answer: inactive: -28.1%

Question: How did the activity change, negative = inhibition turn out when `CN1C[C@@H]2C[C@@H](c3cccn3-c3ccccn3)N3CCC[C@@]23C1=O` was run?
Answer: inactive: -0.477%

Question: With `NC(=O)Cn1cc(C=C2C(=O)NC(=O)NC2=O)c2ccccc21` as the compound, how does the activity change, negative = inhibition read?
Answer: inactive: -4.93%

From PubChem BioAssay AID651804 (National Center for Advancing Translational Sciences (NCATS), 2012)
